This test relates to CD2F1 mice, L1210 leukemia ip, survival T/C. The test is described as follows: NCI In Vivo Anticancer Drug Screen. Data for tumor model L1210 Leukemia (intraperitoneal) in CD2F1 (CDF1) mice. As to conditions: higher T/C = longer survival. In short, it runs like this: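 Compound-dosed mice with transplantable tumor versus matched vehicle controls; endpoint ratio T/C reported.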

Where [1] appears, read: T/C endpoint: mean survival time, dose: 150.0 mg/kg/injection, schedule: Q01DX001 (ip), vehicle: saline.
Where [2] appears, read: T/C endpoint: mean survival time, dose: 300.0 mg/kg/injection, schedule: Q01DX001 (ip), vehicle: saline.
Where [3] appears, read: T/C endpoint: mean survival time, dose: 50.0 mg/kg/injection, schedule: Q01DX009 (ip), vehicle: saline with Tween-80.
Where [4] appears, read: T/C endpoint: mean survival time, dose: 100.0 mg/kg/injection, schedule: Q01DX009 (ip), vehicle: saline with Tween-80.
Setting [5] is: T/C endpoint: mean survival time, dose: 200.0 mg/kg/injection, schedule: Q01DX009 (ip), vehicle: saline with Tween-80.
[6] abbreviates: T/C endpoint: mean survival time, dose: 400.0 mg/kg/injection, schedule: Q04DX003 (ip), vehicle: saline with Tween-80.
[7] abbreviates: T/C endpoint: mean survival time, dose: 400.0 mg/kg/injection, schedule: Q04DX003 (ip), vehicle: saline.
Where [8] appears, read: T/C endpoint: mean survival time, dose: 200.0 mg/kg/injection, schedule: Q04DX003 (ip), vehicle: saline with Tween-80.
Where [9] appears, read: T/C endpoint: mean survival time, dose: 200.0 mg/kg/injection, schedule: Q01DX001 (ip), vehicle: saline with Tween-80.
Where [10] appears, read: T/C endpoint: mean survival time, dose: 400.0 mg/kg/injection, schedule: Q01DX001 (ip), vehicle: saline with Tween-80.

This passage reports survivor count and T/C results from PubChem BioAssay AID256 (DTP/NCI, 2004).

The list is a part of this screen's results and no random one: it gathers tests that were run many times, whatever their T/C, doses with no T/C, and many T/C values between a quarter and a half above the control. Other doses and runs of a compound stand elsewhere. T/C is the treated group as % of the vehicle group. Some doses have a count of surviving animals in place of a T/C: the source files T/C as zero there, which appears to mark a toxic dose or a test without result, not a measured value. Some survivor counts are full or nearly so, which does not show that the dose was tolerated: survival well below the control is almost never listed, so the zero probably covers shortened survival too. Survivors were counted at the toxicity check, usually on the fifth day, unless a day is given; later deaths do not show. Schedules are NCI's codes, taken here to give the interval after Q, in days (D) or hours (H), and the number of doses after X. Signs of the kind (2×) count equal records among those shown. Where survival is the endpoint, this PubChem deposit counts one and a half times the control or more as active, and values a quarter to a half above the control carry no call in these data; other NCI protocols may use other cut-offs. Some molecules as drawn cover several salts, stereoisomers or complexes of the source; a dose is that of the sample tested. Some entries were tested several times; their values stand side by side, smallest first. Some T/C values carry the count of animals alive at the toxicity check (mostly the fifth day); without a count, all were alive then.

Regarding `CNC/C(C)=C/Cl`, the survivor count (T/C endpoint: mean survival time, dose: 200.0 mg/kg/injection, schedule: Q01DX009 (ip), vehicle: acetone) is on record as 3 of 6.
As for `CN(C)c1ccc(/C=C/c2cc[n+](C)cc2)cc1`, under “T/C endpoint: mean survival time, dose: 16.0 mg/kg/injection, schedule: Q01DX009 (ip), vehicle: saline”, the survivor count is 3 of 6.
For the compound `NC(=O)c1c[n+](Cc2ccccc2)ccn1`, the survivor count reads like this: under setting [1], 2 of 6; under setting [2], 0 of 6.
With `CC1=C(Br)C(=O)C(Br)=C(Br)C1=O`, the survivor count reads like this: under setting [3], 5 of 6; under setting [4], 0 of 6.
As for `CC(C)CNC(=O)c1ccc(N=NN(C)Cc2ccncc2)cc1`, the survivor count runs as follows: under setting [5], 3 of 6; under setting [6], 0 of 6.
Turning to `CC(CCl)C(C#N)(c1ccccc1)c1ccccc1` (stereo not drawn), the survivor count under setting [6] was 6 of 6.
Turning to `CCOC(=O)Nc1cccc([N+](=O)[O-])c1`, for the setting “T/C endpoint: mean survival time, dose: 400.0 mg/kg/injection, schedule: Q01DX009 (ip), vehicle: other”, the survivor count was 1 of 6.
As for `OCC1OC(n2nnc3cc[nH]c(=S)c32)C(O)C1O` (stereo not drawn), the survivor count reads like this: (T/C endpoint: mean survival time, dose: 47.5 mg/kg/injection, schedule: Q01DX005 (ip), vehicle: water) 0 of 4; (T/C endpoint: mean survival time, dose: 95.0 mg/kg/injection, schedule: Q01DX005 (ip), vehicle: water) 0 of 4; (T/C endpoint: mean survival time, dose: 190.0 mg/kg/injection, schedule: Q01DX005 (ip), vehicle: water) 0 of 4.
`CCCCCCCCCCNC(=O)C[n+]1cccc(C(=O)N(C)C)c1`: the survivor count was 0 of 6 (T/C endpoint: mean survival time, dose: 100.0 mg/kg/injection, schedule: Q04DX003 (ip), vehicle: saline); 0 of 6 (T/C endpoint: mean survival time, dose: 200.0 mg/kg/injection, schedule: Q04DX003 (ip), vehicle: saline); 0 of 6 under setting [7].
For the compound `CCCCC(=O)N(c1ccc(Nc2c3ccccc3nc3cc([N+](=O)[O-])ccc23)cc1)S(C)(=O)=O`, the T/C is, setting by setting: (T/C endpoint: mean survival time, dose: 3.1 mg/kg/injection, schedule: Q04DX003 (ip), vehicle: Klucel (hydroxypropylcellulose) (HPC)) 132 % of control; (T/C endpoint: mean survival time, dose: 4.8 mg/kg/injection, schedule: Q04DX003 (ip), vehicle: acetone) 131 % of control; (T/C endpoint: mean survival time, dose: 7.2 mg/kg/injection, schedule: Q04DX003 (ip), vehicle: acetone) 131 % of control; (T/C endpoint: mean survival time, dose: 67.0 mg/kg/injection, schedule: Q04DX003 (ip), vehicle: saline with Tween-80) 125 % of control. Moreover, the survivor count is listed as 6 of 6 under setting [3], 6 of 6 under setting [4] and 6 of 6 under setting [7].
For the compound `O=C(O)CC1(c2ccccc2)OC(=O)c2ccccc21` (stereo not drawn), for the setting “T/C endpoint: mean survival time, dose: 400.0 mg/kg/injection, schedule: Q01DX009 (ip), vehicle: saline with Tween-80”, the survivor count is 5 of 6.
Regarding `Cc1ccc(S(=O)(=O)CC(=O)O)cc1`, the survivor count under setting [6] is 3 of 3.
As to `CCCCCCCCCCCCCCCCCC(=O)NCC[N+](C)(C)C`, the survivor count was 2 of 6 (T/C endpoint: mean survival time, dose: 75.0 mg/kg/injection, schedule: Q01DX001 (ip), vehicle: saline); 0 of 6 under setting [1]; 0 of 6 under setting [2].
`CCOC1(c2ccccc2)c2ccccc2C(C)(C)c2ccccc21`: the survivor count under setting [8] was 6 of 6.
On to `O=C(COc1cc(Cl)c(Cl)cc1Cl)OCCOc1cc(Cl)c(Cl)cc1Cl`, for which the survivor count runs as follows: (T/C endpoint: mean survival time, dose: 7.5 mg/kg/injection, schedule: Q04DX003 (ip), vehicle: saline) 6 of 6; (T/C endpoint: mean survival time, dose: 50.0 mg/kg/injection, schedule: Q01DX001 (ip), vehicle: saline) 6 of 6; (T/C endpoint: mean survival time, dose: 100.0 mg/kg/injection, schedule: Q01DX001 (ip), vehicle: saline) 6 of 6; (T/C endpoint: mean survival time, dose: 400.0 mg/kg/injection, schedule: Q01DX001 (ip), vehicle: saline) 6 of 6.
For `COc1ccc(-c2c(C(=O)NCCc3ccccc3)[nH]c(-c3ccccc3)c2-c2ccccc2)cc1`, the survivor count under setting [2] is listed as 3 of 6.
In the case of `Nc1ccn(C2OC(COC(=O)C34CC5CC(CC(C5)C3)C4)C(O)C2O)c(=O)n1` (stereo not drawn), under “T/C endpoint: mean survival time, dose: 200.0 mg/kg/injection, schedule: Q01DX009 (ip), vehicle: other”, the T/C is 128 % of control.
`CCOc1ccnc(OCC)n1`: under setting [6], the survivor count was 1 of 6.
Turning to `COc1cc2nc(/C=C/c3nc4cc(OC)c(OC)cc4[nH]3)[nH]c2cc1OC`, the survivor count is listed as 2 of 6 under setting [9] and 0 of 6 under setting [10].
Take `Cc1c(C)c(C)c2c(c1C)CCC2O` (stereo not drawn): the survivor count is 0 of 3 (2×) under setting [4] and 0 of 3 (2×) under setting [5].
On to `CCOC(=O)CCOc1ccccc1N(CCCl)CCCl`, for which the T/C (T/C endpoint: mean survival time, dose: 66.0 mg/kg/injection, schedule: Q01DX009 (ip), vehicle: saline with Tween-80) was 127 % of control. For the same compound, the survivor count (T/C endpoint: mean survival time, dose: 150.0 mg/kg/injection, schedule: Q01DX009 (ip), vehicle: saline with Tween-80) is given as 0 of 6.
As to `Cc1ccc(N)cc1` (tested in a mixture with another compound), the T/C (T/C endpoint: mean survival time, dose: 50.0 mg/kg/injection, schedule: Q04DX003 (ip), vehicle: saline with Tween-80) is 129 % of control. Further, under setting [6], the survivor count was 3 of 3.
As to `CCC1(O)C(=O)OCc2c1cc1n(c2=O)Cc2cc3cc(O)c(O)cc3nc2-1` (stereo not drawn), the T/C runs as follows: (T/C endpoint: median survival time, dose: 10.0 mg/kg/injection, schedule: Q04DX002 (ip), vehicle: saline with Tween-80) 135 % of control; (T/C endpoint: median survival time, dose: 20.0 mg/kg/injection, schedule: Q04DX002 (ip), vehicle: saline with Tween-80) 135 and 142 % of control; (T/C endpoint: median survival time, dose: 80.0 mg/kg/injection, schedule: Q04DX002 (ip), vehicle: saline with Tween-80) 143 % of control.
Consider `O=C(CCC(=O)Nc1ccc(S(=O)(=O)NCCO)cc1)Nc1ccc(S(=O)(=O)NCCO)cc1`, for which the survivor count by setting is: (T/C endpoint: mean survival time, dose: 100.0 mg/kg/injection, schedule: Q01DX001 (ip), vehicle: saline with Tween-80) 5 of 6; under setting [9], 6 of 6; under setting [10], 6 of 6.
With `O=C(Cn1cc[n+](CC(=O)c2ccccc2)c1)c1ccccc1`, the survivor count reads like this: under setting [8], 3 of 6; under setting [6], 1 of 6.
Consider `OC(CCl)Cc1ccccc1` (stereo not drawn), for which the survivor count was 3 of 6 under setting [8] and 0 of 6 under setting [6].
In the case of `CCC(C)N(C)/N=N/c1nc[nH]c1C(N)=O` (stereo not drawn), the T/C is, setting by setting: (T/C endpoint: mean survival time, dose: 100.0 mg/kg/injection, schedule: Q04DX003 (ip), vehicle: saline with Tween-80) 127 % of control; (T/C endpoint: mean survival time, dose: 133.0 mg/kg/injection, schedule: Q01DX009 (ip), vehicle: saline with Tween-80) 132 % of control [5 of 6 alive]; under setting [8], 138 % of control. The survivor count is reported as 3 of 6 (T/C endpoint: mean survival time, dose: 300.0 mg/kg/injection, schedule: Q01DX009 (ip), vehicle: saline with Tween-80) and 1 of 6 under setting [6].
`CCC[CH2][Sn]1([CH2]CCC)[O]C2C(CO)OC(n3ccc4c(N)ncnc43)C2[O]1` (stereo not drawn): the survivor count is, setting by setting: (T/C endpoint: mean survival time, dose: 6.25 mg/kg/injection, schedule: Q01DX005 (ip), vehicle: other) 0 of 6; (T/C endpoint: mean survival time, dose: 6.25 mg/kg/injection, schedule: Q01DX005 (ip), vehicle: water) 6 of 6; (T/C endpoint: mean survival time, dose: 12.5 mg/kg/injection, schedule: Q01DX005 (ip), vehicle: other) 0 of 6; (T/C endpoint: mean survival time, dose: 25.0 mg/kg/injection, schedule: Q01DX005 (ip), vehicle: other) 0 of 6.
As for `CCOC(=O)c1nc(SC)n(C)c1C(=O)OCC`, the survivor count (T/C endpoint: mean survival time, dose: 400.0 mg/kg/injection, schedule: Q04DX002 (ip), vehicle: saline with Tween-80) was 2 of 3.
With `CO[C@@]12[C@@H]3N[C@@H]3CN1C1=C(C(=O)C(Nc3nc(C)c(C)s3)=C(C)C1=O)[C@@H]2COC(N)=O`, the T/C reads like this: (T/C endpoint: median survival time, dose: 1.5 mg/kg/injection, schedule: Q01DX001 (ip), vehicle: distilled water + Tween-80) 126 % of control; (T/C endpoint: median survival time, dose: 12.0 mg/kg/injection, schedule: Q01DX001 (ip), vehicle: distilled water + Tween-80) 133 % of control. Further, the survivor count (T/C endpoint: median survival time, dose: 48.0 mg/kg/injection, schedule: Q01DX001 (ip), vehicle: distilled water + Tween-80) is reported as 3 of 6.
With `COC(=O)c1cn(C2OC(CO)C(O)C2O)c2ncnc(N)c12` (stereo not drawn), the T/C (T/C endpoint: mean survival time, dose: 25.0 mg/kg/injection, schedule: Q01DX009 (ip), vehicle: water) was 136 % of control.
